# Where two headings read alike, the source gives them in different places. No constants are given. Whether binding was seen depends on the method and setting. In cells and extracts the contact can be indirect. Some entries that bind do so weakly or less than the wild type. Tags and fused reporters may be left off the sequences shown.
# T1: HDA15-YFP^N (Arabidopsis thaliana) (UniProt Q8GXJ1)
# T1 sequence: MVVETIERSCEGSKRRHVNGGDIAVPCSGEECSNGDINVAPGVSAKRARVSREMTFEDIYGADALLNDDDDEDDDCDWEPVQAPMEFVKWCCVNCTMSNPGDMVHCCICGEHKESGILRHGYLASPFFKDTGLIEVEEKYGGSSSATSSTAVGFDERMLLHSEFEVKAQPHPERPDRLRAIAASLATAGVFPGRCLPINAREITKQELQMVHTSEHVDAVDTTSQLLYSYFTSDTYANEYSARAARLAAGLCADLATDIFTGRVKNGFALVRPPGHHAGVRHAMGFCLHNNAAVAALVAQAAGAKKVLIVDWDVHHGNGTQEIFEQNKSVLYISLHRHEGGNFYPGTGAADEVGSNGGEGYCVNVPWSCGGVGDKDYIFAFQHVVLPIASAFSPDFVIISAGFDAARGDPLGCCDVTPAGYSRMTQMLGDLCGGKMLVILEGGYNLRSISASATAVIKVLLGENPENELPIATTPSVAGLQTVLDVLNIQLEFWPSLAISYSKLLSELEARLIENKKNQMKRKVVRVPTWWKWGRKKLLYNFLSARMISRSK
# T2: HDA15 (endogenous) (Arabidopsis thaliana (endogenous in Col-0)) (UniProt Q8GXJ1)
# T2 sequence: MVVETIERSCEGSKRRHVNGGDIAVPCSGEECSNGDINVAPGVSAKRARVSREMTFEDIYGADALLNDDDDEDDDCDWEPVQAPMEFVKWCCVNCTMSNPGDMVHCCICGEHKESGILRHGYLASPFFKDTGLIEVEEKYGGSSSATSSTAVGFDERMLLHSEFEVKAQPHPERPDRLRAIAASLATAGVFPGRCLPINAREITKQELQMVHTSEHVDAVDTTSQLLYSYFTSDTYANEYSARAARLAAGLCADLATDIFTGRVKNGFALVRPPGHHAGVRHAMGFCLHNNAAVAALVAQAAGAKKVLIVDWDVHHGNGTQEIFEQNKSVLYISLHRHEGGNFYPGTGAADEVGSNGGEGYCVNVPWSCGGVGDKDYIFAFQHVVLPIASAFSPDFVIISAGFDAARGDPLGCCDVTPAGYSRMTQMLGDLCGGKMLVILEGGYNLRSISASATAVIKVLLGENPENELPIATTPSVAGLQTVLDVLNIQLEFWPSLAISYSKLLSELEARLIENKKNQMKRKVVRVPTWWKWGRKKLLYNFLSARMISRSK
# Assays:
# [1] = biological target: T1, HDA15-YFP^N (Arabidopsis thaliana); experiment: split reporter
# [2] = biological target: T2, HDA15 (endogenous) (Arabidopsis thaliana (endogenous in Col-0)); experiment: co-IP
# [3] = biological target: T2, HDA15 (endogenous) (Arabidopsis thaliana (endogenous in Col-0)); experiment: co-IP; remark: listed apart in the source
binding [1],binding [2],binding [3],Binder
binds,,,"MAC3B-YFP^C (protein, UniProt O22785 1-525) MNCAISGEVPVEPVVSTKSGLLFERRLIERHISDYGKCPVTGEPLTIDDIVPIKTGEIIKPKTLHTASIPGLLGTFQNEWDGLMLSNFALEQQLHTARQELSHALYQHDSACRVIARLKKERDEARQLLAEVERHIPAAPEAVTANAALSNGKRAAVDEELGPDAKKLCPGISAEIITELTDCNAALSQKRKKRQIPQTLASIDTLERFTQLSSHPLHKTNKPGICSMDILHSKDVIATGGVDATAVLFDRPSGQILSTLTGHSKKVTSVKFVGDSDLVLTASADKTVRIWRNPGDGNYACGYTLNDHSAEVRAVTVHPTNKYFVSASLDGTWCFYDLSSGSCLAQVSDDSKNVDYTAAAFHPDGLILGTGTSQSVVKIWDVKSQANVAKFDGHTGEVTAISFSENGYFLATAAEDGVRLWDLRKLRNFKSFLSADANSVEFDPSGSYLGIAASDIKVYQTASVKAEWNLIKTLPDLSGTGKATCVKFGSDAQYVAVGSMDRNLRIFGLPGDEKANVDDDSAQDS"
,binds,binds,"GFP-MAC3B (protein, UniProt O22785 1-525) MNCAISGEVPVEPVVSTKSGLLFERRLIERHISDYGKCPVTGEPLTIDDIVPIKTGEIIKPKTLHTASIPGLLGTFQNEWDGLMLSNFALEQQLHTARQELSHALYQHDSACRVIARLKKERDEARQLLAEVERHIPAAPEAVTANAALSNGKRAAVDEELGPDAKKLCPGISAEIITELTDCNAALSQKRKKRQIPQTLASIDTLERFTQLSSHPLHKTNKPGICSMDILHSKDVIATGGVDATAVLFDRPSGQILSTLTGHSKKVTSVKFVGDSDLVLTASADKTVRIWRNPGDGNYACGYTLNDHSAEVRAVTVHPTNKYFVSASLDGTWCFYDLSSGSCLAQVSDDSKNVDYTAAAFHPDGLILGTGTSQSVVKIWDVKSQANVAKFDGHTGEVTAISFSENGYFLATAAEDGVRLWDLRKLRNFKSFLSADANSVEFDPSGSYLGIAASDIKVYQTASVKAEWNLIKTLPDLSGTGKATCVKFGSDAQYVAVGSMDRNLRIFGLPGDEKANVDDDSAQDS"
binds,,,"MAC3A-YFP^C (protein, UniProt Q94BR4 1-523) MNCAISGEVPEEPVVSKKSGLLYEKRLIQTHISDYGKCPVTGEPHTLDDIVPIKTGKIVKPKPLHTASIPGLLGTFQTEWDSLMLSNFALEQQLHTARQELSHALYQHDAACRVIARLKKERDESRQLLAEAERQLPAAPEVATSNAALSNGKRGIDDGEQGPNAKKMRLGISAEVITELTDCNAALSQQRKKRQIPKTLASVDALEKFTQLSSHPLHKTNKPGIFSMDILHSKDVIATGGIDTTAVLFDRPSGQILSTLTGHSKKVTSIKFVGDTDLVLTASSDKTVRIWGCSEDGNYTSRHTLKDHSAEVRAVTVHATNKYFVSASLDSTWCFYDLSSGLCLAQVTDASENDVNYTAAAFHPDGLILGTGTAQSIVKIWDVKSQANVAKFGGHNGEITSISFSENGYFLATAALDGVRLWDLRKLKNFRTFDFPDANSVEFDHSGSYLGIAASDIRVFQAASVKAEWNPIKTLPDLSGTGKATSVKFGLDSKYIAVGSMDRNLRIFGLPDDDNTEDSAQDS"
,,binds,"GFP-MAC3A (protein, UniProt Q94BR4 1-523) MNCAISGEVPEEPVVSKKSGLLYEKRLIQTHISDYGKCPVTGEPHTLDDIVPIKTGKIVKPKPLHTASIPGLLGTFQTEWDSLMLSNFALEQQLHTARQELSHALYQHDAACRVIARLKKERDESRQLLAEAERQLPAAPEVATSNAALSNGKRGIDDGEQGPNAKKMRLGISAEVITELTDCNAALSQQRKKRQIPKTLASVDALEKFTQLSSHPLHKTNKPGIFSMDILHSKDVIATGGIDTTAVLFDRPSGQILSTLTGHSKKVTSIKFVGDTDLVLTASSDKTVRIWGCSEDGNYTSRHTLKDHSAEVRAVTVHATNKYFVSASLDSTWCFYDLSSGLCLAQVTDASENDVNYTAAAFHPDGLILGTGTAQSIVKIWDVKSQANVAKFGGHNGEITSISFSENGYFLATAALDGVRLWDLRKLKNFRTFDFPDANSVEFDHSGSYLGIAASDIRVFQAASVKAEWNPIKTLPDLSGTGKATSVKFGLDSKYIAVGSMDRNLRIFGLPDDDNTEDSAQDS"

# Source: paper doi:10.1101/2020.11.17.386672
